Data reported in the supplement of paper PMC6078165.
Values are relative to the signal before dosing, not to a vehicle control; the signal also falls without drug.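 Fibroblast labels name human fibroblasts: mostly primary ones from tissues such as uterus (C12385, HUF), lung (H6013), bone (Hs27A), adrenal (HADF) and skin (WS1), plus mammary HMF and breast cancer-associated Hs343T. The cancer cells are basal-like or mesenchymal-like triple-negative breast cancer lines. The paper calls a changed response a hit when it shifts by more than 3x the replicate standard deviation. The tissue of the other fibroblasts is not given here.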

Test system: HCC1143
Test: relative JC-1 red fluorescence (viability) vs pre-drug, coculture with fibroblast (fraction); higher = more viable cancer cells
Settings: 10 µM
Experimental: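 JC-1 labelled TNBC cells cocultured 1:1 (1,500 cells each) with CellTrace Violet stained primary or stromal fibroblasts in 384-well plates in FluoroBrite medium, treated with one of 42 anticancer drugs at 0.1, 1, 10 or 100 uM. JC-1 red fluorescence (mitochondrial integrity in cancer cells only) was read by plate reader every 8 h for 72 h. Values are normalised to each well's pre-drug value. The stock of one drug was tenfold lower, so its dose labels may be too high.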

CC[C@]1(O)C[C@H]2CN(CCc3c([nH]c4ccccc34)[C@@](C(=O)OC)(c3cc4c(cc3OC)N(C=O)[C@H]3[C@@](O)(C(=O)OC)[C@H](OC(C)=O)[C@]5(CC)C=CCN6CC[C@]43[C@@H]65)C2)C1 [Vincristine]
relative JC-1 red fluorescence
Settings | 8 h | 16 h | 24 h | 32 h | 40 h | 48 h | 56 h | 64 h | 72 h
coculture fibroblast: C12385 | 0.8486 | 0.8129 | 0.7843 | 0.7466 | 0.709 | 0.671 | 0.651 | 0.612 | 0.6029
coculture fibroblast: H6013 | 0.793 | 0.749 | 0.729 | 0.747 | 0.676 | 0.673 | 0.66 | 0.658 | 0.688
coculture fibroblast: H6019 | 0.86356 | 0.8284 | 0.817 | 0.79 | 0.7772 | 0.781 | 0.758 | 0.747 | 0.739
coculture fibroblast: H6076 | 0.811 | 0.858 | 0.817 | 0.751 | 0.742 | 0.74 | 0.715 | 0.696 | 0.717
coculture fibroblast: H6231 | 0.8487 | 0.784 | 0.735 | 0.701 | 0.649 | 0.632 | 0.595 | 0.563 | 0.5516
coculture fibroblast: HADF | 0.737 | 0.694 | 0.669 | 0.682 | 0.588 | 0.563 | 0.537 | 0.523 | 0.558
coculture fibroblast: HCFa | 0.8084 | 0.736 | 0.691 | 0.685 | 0.595 | 0.582 | 0.558 | 0.531 | 0.536
coculture fibroblast: HCPF | 0.8232 | 0.867 | 0.819 | 0.7 | 0.767 | 0.737 | 0.707 | 0.676 | 0.663
coculture fibroblast: HHSteC | 0.8414 | 0.795 | 0.761 | 0.751 | 0.6715 | 0.6542 | 0.61 | 0.5919 | 0.579
coculture fibroblast: HMF | 0.7921 | 0.874 | 0.803 | 0.685 | 0.737 | 0.707 | 0.67 | 0.644 | 0.6269
coculture fibroblast: HPFa | 0.938 | 0.878 | 0.855 | 0.758 | 0.716 | 0.693 | 0.6488 | 0.6131 | 0.595
coculture fibroblast: HUF | 0.881 | 0.805 | 0.753 | 0.685 | 0.643 | 0.617 | 0.58 | 0.55 | 0.526
coculture fibroblast: Hs5 | 0.8622 | 0.91 | 0.87 | 0.826 | 0.779 | 0.751 | 0.7279 | 0.703 | 0.71
coculture fibroblast: Hs27A | 0.749 | 0.681 | 0.654 | 0.702 | 0.585 | 0.566 | 0.539 | 0.527 | 0.588
coculture fibroblast: Hs343T | 0.822 | 0.8998 | 0.846 | 0.734 | 0.744 | 0.706 | 0.672 | 0.644 | 0.624
coculture fibroblast: WS1 | 0.868 | 0.82 | 0.793 | 0.746 | 0.713 | 0.695 | 0.661 | 0.642 | 0.621
